Measurements reported in PubChem BioAssay AID254 (DTP/NCI, 2004).
The list is a part of this screen's results and no random one: it gathers some chemical classes. Other doses and runs of a compound may be missing. T/C is the treated group as % of the vehicle group. Some entries give survivors of the animals treated and no T/C: the source files T/C as zero there, which appears to mark a toxic dose or a test without result, not a measured value. Some doses without a T/C left all or most animals alive at the check, yet need not have been tolerated: the source hardly ever lists a survival T/C far under the control, and the zero likely stands for such cases as well. Survivors were counted at the toxicity check, usually on the fifth day, unless a day is given; later deaths do not show. Schedules are NCI's codes, taken here to give the interval after Q, in days (D) or hours (H), and the number of doses after X. For survival time, this PubChem deposit counts one and a half times the control or more as active, and values a quarter to a half above the control carry no call in these data; other NCI protocols may use other cut-offs. Some entries were tested several times; the values are given in rising order. Some T/C values carry the count of animals alive at the toxicity check (mostly the fifth day); without a count or a note in brackets, all were alive then.

System: L1210 leukemia iv in BDF1 mice, survival T/C
Test: NCI In Vivo Anticancer Drug Screen. Data for tumor model L1210 Leukemia (intravenous) in B6D2F1 (BDF1) mice
Conditions: T/C endpoint: mean survival time, higher T/C = longer survival
Method: The antitumor activity of compounds was measured in mice bearing transplantable tumors. Survival or tumor size were measured and the results are expressed as the measurement made in the treated group (T) divided by the measurement made in the vehicle treated control group (C). The tumor model used in this assay is L1210 Leukemia (intravenous) in B6D2F1 (BDF1) mice

[1] = dose: 100.0 mg/kg/injection, schedule: Q07DX004 (ip), vehicle: clinical formulation
[2] = dose: 150.0 mg/kg/injection, schedule: Q07DX008 (ip), vehicle: clinical formulation

Q: Which results are given for `NC(=O)c1[nH]cnc1/N=N\N(CCCl)CCCl`?
A: T/C (dose: 6.6 mg/kg/injection, schedule: Q02DX008 (ip), vehicle: clinical formulation): 97 % of control; T/C (dose: 7.5 mg/kg/injection, schedule: Q03HX032 (ip), vehicle: clinical formulation): 123 % of control; T/C (dose: 10.0 mg/kg/injection, schedule: Q02DX008 (ip), vehicle: clinical formulation): 100 % of control; T/C (dose: 11.0 mg/kg/injection, schedule: Q03HX032 (ip), vehicle: clinical formulation): 210 % of control; T/C (dose: 13.0 mg/kg/injection, schedule: Q01DX015 (ip), vehicle: clinical formulation): 110 % of control; T/C (dose: 15.0 mg/kg/injection, schedule: Q02DX008 (ip), vehicle: clinical formulation): 112 % of control; T/C (dose: 17.0 mg/kg/injection, schedule: Q03HX032 (ip), vehicle: clinical formulation): 248 % of control; T/C (dose: 20.0 mg/kg/injection, schedule: Q01DX015 (ip), vehicle: clinical formulation): 134 % of control; T/C (dose: 22.5 mg/kg/injection, schedule: Q02DX008 (ip), vehicle: clinical formulation): 129 % of control; T/C (dose: 26.0 mg/kg/injection, schedule: Q03HX032 (ip), vehicle: clinical formulation): 582 % of control; T/C (dose: 27.0 mg/kg/injection, schedule: Q01DX001 (ip), vehicle: other, evaluated on day 3): 133 % of control; T/C (dose: 27.0 mg/kg/injection, schedule: Q01DX001 (ip), vehicle: other, evaluated on day 60): 133 % of control; T/C (dose: 30.0 mg/kg/injection, schedule: Q01DX015 (ip), vehicle: clinical formulation): 163 % of control; T/C (dose: 34.0 mg/kg/injection, schedule: Q02DX008 (ip), vehicle: clinical formulation): 131 % of control; T/C (dose: 38.0 mg/kg/injection, schedule: Q03HX032 (ip), vehicle: clinical formulation): 487 % of control; T/C (dose: 45.0 mg/kg/injection, schedule: Q01DX015 (ip), vehicle: clinical formulation): 331 % of control; T/C (dose: 53.0 mg/kg/injection, schedule: Q01DX001 (ip), vehicle: Klucel (hydroxypropylcellulose) (HPC)): 163 % of control; T/C (dose: 53.0 mg/kg/injection, schedule: Q01DX001 (ip), vehicle: other, evaluated on day 3): 163, 179, 190 % of control; T/C (dose: 53.0 mg/kg/injection, schedule: Q01DX001 (ip), vehicle: other, evaluated on day 60): 179 and 190 % of control; T/C (dose: 60.0 mg/kg/injection, schedule: Q04DX004 (ip), vehicle: clinical formulation): 187 % of control; T/C (dose: 67.0 mg/kg/injection, schedule: Q07DX004 (ip), vehicle: clinical formulation): 187, 192, 221 % of control; T/C (dose: 67.0 mg/kg/injection, schedule: Q07DX006 (ip), vehicle: clinical formulation): 187, 195, 204 % of control; T/C (dose: 67.0 mg/kg/injection, schedule: Q07DX008 (ip), vehicle: clinical formulation): 176, 187, 197 % of control; T/C (dose: 67.0 mg/kg/injection, schedule: Q07DX010 (ip), vehicle: clinical formulation): 195, 196, 217 % of control; T/C (dose: 68.0 mg/kg/injection, schedule: Q01DX015 (ip), vehicle: clinical formulation): 510 % of control; T/C (dose: 83.0 mg/kg/injection, schedule: Q01DX001 (ip), vehicle: clinical formulation, evaluated on day 3): 229 % of control; T/C (dose: 83.0 mg/kg/injection, schedule: Q01DX001 (ip), vehicle: clinical formulation, evaluated on day 60): 229 % of control; T/C (dose: 90.0 mg/kg/injection, schedule: Q04DX004 (ip), vehicle: clinical formulation): 376 % of control; T/C [1]: 313 and 817 % of control; survivor count [1]: 10 of 10; T/C (dose: 100.0 mg/kg/injection, schedule: Q07DX006 (ip), vehicle: clinical formulation): 304, 539, 751 % of control; T/C (dose: 100.0 mg/kg/injection, schedule: Q07DX008 (ip), vehicle: clinical formulation): 390, 687, 732 % of control; T/C (dose: 100.0 mg/kg/injection, schedule: Q07DX010 (ip), vehicle: clinical formulation): 272, 387, 480 % of control; T/C (dose: 106.0 mg/kg/injection, schedule: Q01DX001 (ip), vehicle: Klucel (hydroxypropylcellulose) (HPC)): 197 % of control; T/C (dose: 106.0 mg/kg/injection, schedule: Q01DX001 (ip), vehicle: other, evaluated on day 3): 197, 212, 230 % of control; T/C (dose: 106.0 mg/kg/injection, schedule: Q01DX001 (ip), vehicle: other, evaluated on day 60): 212 and 230 % of control; T/C (dose: 120.0 mg/kg/injection, schedule: Q01DX001 (ip), vehicle: clinical formulation): 231 % of control; T/C (dose: 120.0 mg/kg/injection, schedule: Q01DX001 (ip), vehicle: other, evaluated on day 3): 197 % of control; T/C (dose: 120.0 mg/kg/injection, schedule: Q01DX001 (ip), vehicle: other, evaluated on day 60): 197 % of control; T/C (dose: 121.0 mg/kg/injection, schedule: Q01DX001 (ip), vehicle: clinical formulation, evaluated on day 3): 411 % of control; T/C (dose: 121.0 mg/kg/injection, schedule: Q01DX001 (ip), vehicle: clinical formulation, evaluated on day 60): 411 % of control; T/C (dose: 135.0 mg/kg/injection, schedule: Q04DX004 (ip), vehicle: clinical formulation): 514 % of control; T/C (dose: 150.0 mg/kg/injection, schedule: Q07DX004 (ip), vehicle: clinical formulation): 353, 521, 861 % of control; T/C (dose: 150.0 mg/kg/injection, schedule: Q07DX006 (ip), vehicle: clinical formulation): 771, 883, 931 % of control; T/C [2]: 146 and 804 % of control; survivor count [2]: 10 of 10; T/C (dose: 150.0 mg/kg/injection, schedule: Q07DX010 (ip), vehicle: clinical formulation): 441, 694, 708 % of control; T/C (dose: 159.0 mg/kg/injection, schedule: Q01DX001 (ip), vehicle: Klucel (hydroxypropylcellulose) (HPC)): 223 % of control; T/C (dose: 159.0 mg/kg/injection, schedule: Q01DX001 (ip), vehicle: other, evaluated on day 3): 223, 235, 250 % of control; T/C (dose: 159.0 mg/kg/injection, schedule: Q01DX001 (ip), vehicle: other, evaluated on day 60): 235 and 250 % of control; T/C (dose: 180.0 mg/kg/injection, schedule: Q01DX001 (ip), vehicle: clinical formulation): 310 % of control; T/C (dose: 180.0 mg/kg/injection, schedule: Q01DX001 (ip), vehicle: other, evaluated on day 3): 231 % of control; T/C (dose: 180.0 mg/kg/injection, schedule: Q01DX001 (ip), vehicle: other, evaluated on day 60): 231 % of control; T/C (dose: 185.0 mg/kg/injection, schedule: Q01DX001 (ip), vehicle: clinical formulation, evaluated on day 3): 509 % of control; T/C (dose: 185.0 mg/kg/injection, schedule: Q01DX001 (ip), vehicle: clinical formulation, evaluated on day 60): 509 % of control; T/C (dose: 202.0 mg/kg/injection, schedule: Q04DX004 (ip), vehicle: clinical formulation): 310 % of control; T/C (dose: 212.0 mg/kg/injection, schedule: Q01DX001 (ip), vehicle: Klucel (hydroxypropylcellulose) (HPC)): 221 % of control; T/C (dose: 212.0 mg/kg/injection, schedule: Q01DX001 (ip), vehicle: other, evaluated on day 3): 221, 254, 283 % of control; T/C (dose: 212.0 mg/kg/injection, schedule: Q01DX001 (ip), vehicle: other, evaluated on day 60): 254 and 283 % of control; T/C (dose: 225.0 mg/kg/injection, schedule: Q07DX004 (ip), vehicle: clinical formulation): 377 [9 of 10 alive], 404, 764 % of control [9 of 10 alive]; T/C (dose: 225.0 mg/kg/injection, schedule: Q07DX006 (ip), vehicle: clinical formulation): 347, 353, 378 % of control; T/C (dose: 225.0 mg/kg/injection, schedule: Q07DX008 (ip), vehicle: clinical formulation): 465, 469, 531 % of control; T/C (dose: 225.0 mg/kg/injection, schedule: Q07DX010 (ip), vehicle: clinical formulation): 412, 421, 439 % of control; T/C (dose: 265.0 mg/kg/injection, schedule: Q01DX001 (ip), vehicle: Klucel (hydroxypropylcellulose) (HPC)): 270 % of control; T/C (dose: 265.0 mg/kg/injection, schedule: Q01DX001 (ip), vehicle: other, evaluated on day 3): 270, 280, 295 % of control; T/C (dose: 265.0 mg/kg/injection, schedule: Q01DX001 (ip), vehicle: other, evaluated on day 60): 280 and 295 % of control; T/C (dose: 270.0 mg/kg/injection, schedule: Q01DX001 (ip), vehicle: clinical formulation): 182 % of control; T/C (dose: 270.0 mg/kg/injection, schedule: Q01DX001 (ip), vehicle: other, evaluated on day 3): 309 % of control; T/C (dose: 270.0 mg/kg/injection, schedule: Q01DX001 (ip), vehicle: other, evaluated on day 60): 309 % of control; T/C (dose: 276.0 mg/kg/injection, schedule: Q01DX001 (ip), vehicle: clinical formulation, evaluated on day 3): 735 % of control; T/C (dose: 276.0 mg/kg/injection, schedule: Q01DX001 (ip), vehicle: clinical formulation, evaluated on day 60): 735 % of control; T/C (dose: 306.0 mg/kg/injection, schedule: Q04DX004 (ip), vehicle: clinical formulation): 136 % of control; T/C (dose: 318.0 mg/kg/injection, schedule: Q01DX001 (ip), vehicle: other, evaluated on day 3): 297 % of control; T/C (dose: 318.0 mg/kg/injection, schedule: Q01DX001 (ip), vehicle: other, evaluated on day 60): 297 % of control; T/C (dose: 371.0 mg/kg/injection, schedule: Q01DX001 (ip), vehicle: other, evaluated on day 3): 349 % of control; T/C (dose: 371.0 mg/kg/injection, schedule: Q01DX001 (ip), vehicle: other, evaluated on day 60): 350 % of control; T/C (dose: 400.0 mg/kg/injection, schedule: Q01DX001 (ip), vehicle: other, evaluated on day 3): 297 % of control; T/C (dose: 400.0 mg/kg/injection, schedule: Q01DX001 (ip), vehicle: other, evaluated on day 60): 297 % of control; survivor count (dose: 405.0 mg/kg/injection, schedule: Q01DX001 (ip), vehicle: clinical formulation): 3 of 10; T/C (dose: 600.0 mg/kg/injection, schedule: Q01DX001 (ip), vehicle: other, evaluated on day 3): 413 % of control; T/C (dose: 600.0 mg/kg/injection, schedule: Q01DX001 (ip), vehicle: other, evaluated on day 60): 413 % of control; survivor count (dose: 606.0 mg/kg/injection, schedule: Q01DX001 (ip), vehicle: clinical formulation): 3 of 10
